Data from PubChem BioAssay AID662 (National Center for Advancing Translational Sciences (NCATS), 2007).
This is one part of the list. The main result of the screen is listed elsewhere. These columns were measured beside it and carry no call. Most of these compounds were active or inconclusive in the main read-out, so they are no random draw. The note in brackets gives the kind of curve behind each potency; many fits are weak.

Assay: Cell signaling CRE-BLA (Fsk stim)
Settings: CHO CRE-bla reporter (cAMP response element driving beta-lactamase), forskolin EC10, beta-lactamase ratio; measured here: 460 nm blue channel
How it was run: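 Beta-lactamase reporter under a cAMP responsive element in CHO cells; compounds tested in titration series against EC10 NKH 477, 3 h at 37 °C. Read-out: CCF4 FRET ratio 460nm/530nm (excitation 405nm) giving %Activity, fitted to AC50.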

SMILES | AC50
Cc1nnc2n1N=CC=C(C(C)(C)C)S2 | 10 µM [falling, single point]
CNC(=O)c1c(NC(=O)c2ccc(S(=O)(=O)N3CCOCC3)cc2)sc2c1CCC2 | 7.94 µM [rising, partial curve]
Cc1occc1C(=O)n1nnc2ccccc21 | 6.31 µM [falling, partial curve, poor fit]
COCCCn1c(=N)c(C(=O)NCC2CCCO2)cc2c(=O)n3ccccc3nc21 (stereo not drawn) | 15.8 µM [rising, partial curve]
O=C(CCc1nc2ccccc2[nH]c1=O)OCC(=O)N1CCc2ccccc21 | 25.1 µM [rising, single point]
COc1ccc(CNc2cc(-c3ccccc3C)ncn2)c(OC)c1 | 6.31 µM [rising, partial curve]
CCC(=O)N/C=C/n1cnc2cc(C(F)(F)F)ccc21 | 5.01 µM [falling, single point]
CCCn1nnc2sc3c(c2c1=O)CCC(C)C3 (stereo not drawn) | 10 µM [rising, single point]
CCOC(=O)N1CCN(C(=O)CN(C)S(=O)(=O)c2ccc(OC)c(OC)c2)CC1 | 25.1 µM [rising, single point]
CC(C)(C)OC(=O)N[C@@H](Cc1ccccc1)c1nnc(S(=O)(=O)Cc2cccc(F)c2)o1 | 5.01 µM [falling, partial curve]
COc1ccccc1C1=NOC(Cn2c(=O)c3c(ncn3C)n(C)c2=O)C1 (stereo not drawn) | 0.316 µM [falling, partial curve]
CCN(c1c(C)n(C)n(-c2ccccc2)c1=O)S(C)(=O)=O | 25.1 µM [falling, single point]
CN(CC(=O)N1CCN(c2ccccn2)CC1)S(=O)(=O)c1ccc2ccccc2c1 | 25.1 µM [falling, single point]
CCCCC(=O)Nc1nn(CCC)c2nc3ccccc3cc12 | 15.8 µM [rising, partial curve]
Fc1ccc2nc3[nH]c4ccccc4c3nc2c1 | 7.94 µM [rising, partial curve]
COc1ccccc1OCc1ccc(C(=O)n2nc(C)c(Cl)c2C)o1 | 15.8 µM [rising, single point]
Cc1ccc2nc3c(cc(C#N)c(=O)n3-c3nccs3)c(=O)n2c1 | 5.01 µM [rising, partial curve]
COc1cc(C(=O)N2CCCC(c3nc(-c4cccs4)no3)C2)cc(OC)c1OC (stereo not drawn) | 2.51 µM [rising, single point]
COc1cc(CC(=O)OC2CCOC2=O)cc(OC)c1OC (stereo not drawn) | 3.16 µM [rising, single point]
COc1ccc(OC)c(NC(=O)CSc2nnc(CCCO)n2-c2ccccc2)c1 | 12.6 µM [rising, single point]
CCOC(=O)CSc1nc2sc(C)c(C)c2c(=O)n1C | 12.6 µM [rising, single point]
CC(C)Cn1c(SCC(=O)NC2CCCc3ccccc32)nc(O)cc1=O (stereo not drawn) | 2 µM [falling, partial curve]

As entered above:
COc1ccc(OC)c(NC(=O)CSc2nnc(CCCO)n2-c2ccccc2)c1 – AC50: 12.6 µM [rising, single point]
CCOC(=O)N1CCN(C(=O)CN(C)S(=O)(=O)c2ccc(OC)c(OC)c2)CC1 – AC50: 25.1 µM [rising, single point]

The list continues:

SMILES | AC50
CCOC(=O)c1c(NC(=O)c2cccs2)sc(C)c1C | 6.31 µM [rising, partial curve]
CCOC(=O)c1ccccc1NC(=O)CSc1nnc(Cc2cccn2C)n1-c1ccc(C)cc1 | 10 µM [falling, single point]
Cc1noc(C)c1COC(=O)c1cc(=O)[nH]c2ccccc12 | 12.6 µM [rising, single point]
COc1ccc(N(CC(=O)NCc2ccccc2)S(=O)(=O)c2c(C)noc2C)cc1 | 5.01 µM [rising, single point]
COc1ccc(-c2nc(C#N)c(NCc3ccc(F)cc3)o2)cc1OC | 2.51 µM [rising, full curve]
CCOc1ccc(-c2cc3nc(C4CCN(C(=O)OC(C)(C)C)CC4)c(C(=O)O)cn3n2)cc1 | 12.6 µM [rising, partial curve]
Cc1ccc(S(=O)(=O)N2CCN(C(=O)CSc3nc4ccccc4c(=O)[nH]3)CC2)c(C)c1 | 25.1 µM [rising, single point]
CN(C)S(=O)(=O)c1cccc(-c2cn3ccccc3n2)c1 | 10 µM [rising, partial curve]
N#CC1=C2SCC(O)(c3ccccc3)N2C(=O)CC1c1cccs1 (stereo not drawn) | 12.6 µM [rising, partial curve, poor fit]
Cc1cc(Nc2ccccc2F)n2ncnc2n1 | 10 µM [rising, single point]
COc1ccccc1NC(=O)c1c(NC(=O)c2ccco2)sc2c1CCC2 | 2.51 µM [rising, full curve]
C=CCNc1nc2c(c(=O)[nH]c(=O)n2C)n1CCCCC | 10 µM [rising, partial curve]
CCc1cccc(C)c1NC(=O)C1C2CCC(O2)C1C(=O)O (stereo not drawn) | 0.1 µM [falling, full curve, poor fit]
CN1CCN(C(=O)c2cccc(COc3cc(Cl)ccc3Cl)c2)CC1 | 12.6 µM [rising, partial curve]
CCOc1ccc(N2C(=O)CC(Sc3nc(C)cc(C)n3)C2=O)cc1 (stereo not drawn) | 1 µM [rising, partial curve, poor fit]
CN(Cc1ccco1)c1cc(-c2ccccc2Cl)ncn1 | 12.6 µM [rising, partial curve]
Cc1nnc(C)n1/N=C/c1ccc2c(c1)OCCO2 | 3.98 µM [falling, single point]
Cn1c(=O)c2c(nc(CN3CCN(Cc4ccccc4)CC3)n2Cc2ccc(F)cc2)n(C)c1=O | 6.31 µM [rising, partial curve]
O=C(CCC(=O)N1CCc2ccccc21)N1CCc2ccccc21 | 0.01 µM [falling, partial curve, poor fit]
CC1CCCCN1C(=O)Cn1c(=O)n(C2CCCCC2)c(=O)c2ccccc21 (stereo not drawn) | 25.1 µM [rising, single point]
CC(=O)c1nnn(-c2nc(N)nc(N(c3ccccc3)c3ccccc3)n2)c1C | 15.8 µM [rising, single point]
